Values from PubChem BioAssay AID743454 (Peter MacCallum Cancer Centre, 2014).
In all, the deposit lists about 18,000 reagents; shown is a part drawn at random. In the full data, 450 (2.5%) were called active. 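Single biological run; no consistent viability z cut-off exists, so the class columns, not z-scores, define the calls.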 A number with no mark means an inactive call.

Assay: 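Knock-downs lowering viability or raising caspase 3/7 activity in vorinostat-treated resistant cells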 (primary screen)
Cells: human HCT116-VR colon cancer cells, selected for vorinostat resistance
Reagent: siRNA pool against human genes, 40 nM siRNA pool
Duration: vorinostat for 24 h, read-out about 72 h after transfection
Treatment: vorinostat at 2.5 µM final
Measurement: 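Cell viability by CellTiter-Fluor and caspase 3/7 activity by luminescence, each scaled to mock wells per plate, duplicates averaged, then robust z-scored over all plates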
Direction: viability robust z-score: higher = more viable cells than screen typical; caspase robust z-score: higher = more caspase 3/7 activity than screen typical
Rule for the call: 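Hits are knock-downs in viability class RV1/RV2 or caspase class CA1/CA2, excluding ones that killed cells in the no-drug cell-count arm; hits then retested with single siRNAs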

The opening 7 records, to show the layout:
target gene | viability hit class | caspase hit class | viability robust z-score | caspase robust z-score
FER | no change | no change | 2.12 | -0.53
AP4S1 | no change | no change | -1.12 | 1.82
ZFPM1 | no change | no change | -1.12 | 0.75
TMPRSS11E | no change | no change | 0.4 | -0.37
HPS4 | no change | no change | -0.76 | 0.34
NDUFA2 | no change | no change | 1.62 | -0.05
KPNA2 | no change | no change | -0.34 | 1.09

The listing, from the first entry:
target gene | viability hit class | caspase hit class | viability robust z-score | caspase robust z-score
FER | no change | no change | 2.12 | -0.53
AP4S1 | no change | no change | -1.12 | 1.82
ZFPM1 | no change | no change | -1.12 | 0.75
TMPRSS11E | no change | no change | 0.4 | -0.37
HPS4 | no change | no change | -0.76 | 0.34
NDUFA2 | no change | no change | 1.62 | -0.05
KPNA2 | no change | no change | -0.34 | 1.09
KCNH7 | no change | no change | -1.9 | 1.19
M1AP | no change | no change | -0.18 | 0.65
PCDH9 | no change | no change | 2.01 | -0.24
SPMIP6 | no change | no change | -0.15 | -0.15
OR2T10 | no change | no change | 0.34 | 1.26
NFKBIA | no change | no change | 0.19 | 0.29
EID2B | no change | no change | -0.2 | 2.84
PRSS12 | no change | no change | 1.43 | -0.29
HAO2 | no change | no change | -0.3 | 0.3
PRAME | no change | no change | 0.68 | -0.43
DAD1 | no change | no change | -0.42 | 1.26
GTSF1L | no change | no change | -0.46 | -0.19
HNRNPR | no change | no change | 1.1 | -0.08
GEM | no change | no change | 0.48 | 0.32
HARS1 | no change | no change | 0.18 | 0.9
USP12 | no change | no change | 0.22 | 0.34
CSMD1 | no change | no change | 0.29 | 2.21
DEFB104A | no change | no change | -0.84 | -0.59
SLC9B2 | no change | no change | -0.37 | 1.26
CYP11A1 | no change | no change | 0.3 | -0.34
ESCO2 | no change | no change | 0.3 | -0.36
GMCL1 | no change | no change | 1.09 | -0.44
TERF2 | no change | no change | -0.01 | 0.96
SOWAHA | no change | no change | 1.21 | -0.11
EPHB3 | no change | no change | 0.44 | 2.98
GTPBP10 | no change | no change | 0.79 | 1.06
CCDC178 | no change | no change | -0.02 | -0.4
ZNF335 | no change | no change | -0.52 | -0.16
DCPS | no change | no change | 0.69 | -0.49
CYP11B2 | no change | no change | 1.19 | -0.55
PPP1R15B | no change | no change | -1.95 | -1.12
KIF16B | no change | no change | -0.36 | -0.34
PRR16 | no change | no change | -1.21 | -1
FAM153A | no change | no change | -1.34 | -1.67
TMEM203 | no change (active) | CA1 (caspase activation) | -0.7 | 6.75
RXFP4 | no change | no change | 0.34 | -0.67
CNIH3 | no change | no change | -0.66 | 0.25
ANKRD16 | no change | no change | 1.38 | 2.04
GUCY2EP | no change | no change | 0.82 | -0.24
VRTN | no change | no change | -1.66 | 2.86
NUP214 | no change | no change | -1.99 | 2.53
WASL | no change | no change | 0.7 | 0.68
RAB23 | no change | no change | 0.84 | 1.58
DGCR6 | no change | no change | 0.1 | 0.8
FSTL5 | no change | no change | 0.24 | -0.46
FUT8 | no change | no change | 0.13 | 3.55
SLC35D4 | no change | no change | 1.66 | 0.98
PGBD5 | no change | no change | 0.76 | 0.51
FPGT | no change | no change | 0.26 | -0.47
DHRS12 | no change | no change | 0.64 | -1.03
